The record followed here is US20210371492A1 (INNOVATIVE CELLULAR THERAPEUTICS, published 2021).

No constants are given. Whether binding was seen depends on the method and setting. For part of these data: Binding can be weak; no strength is given.

Assay [1] deals with IL4R-his. Nature of the assay: ELISA, binding specificity, antibody 10ug/ml, OD490; the text calls this non-specific binding.
Assay [2] addresses CTLA4-his. The description is as above.
In assay [3] the target is ST2-his. The assay is described as above.
Assay [4] addresses IL4R-his. Nature of the assay: ELISA, binding specificity, single antibody concentration, OD490.
The target of assay [5] is CTLA4-his. Described as above.
For assay [6], the target named is ST2-his. The assay is described as above.

B1: R7C8VH/L1B9VK-mIgG2a (antibody, V domains shown)
VH: QVQLQQWGAGLLKPSETLSLTCAVFGGSFSGYYWSWIRQPPGKGLEWIGEINHRGNINDNPSLKSRVTISVDTSKNQFALKLSSVTAADTAVYYCARERGYTYGNYEHWGQGTLVTVSS
VL: EIVMTQSPATLSVSPGERATLSCRASQTVNRNLAWYQQKPGQAPRLLIYGASTRATGIPARFSGSGSGTEFTLTIGSLQSEDFAVYYCQQYKTWPRSFGQGTNVEIK
For the molecule B1, the binding result with IL4R-his [1], with CTLA4-his [2] and with ST2-his [3] was “binds” in each case.

B2: R7C8VH/L1C9VK-mIgG2a (antibody, V domains shown)
VH: QVQLQQWGAGLLKPSETLSLTCAVFGGSFSGYYWSWIRQPPGKGLEWIGEINHRGNINDNPSLKSRVTISVDTSKNQFALKLSSVTAADTAVYYCARERGYTYGNYEHWGQGTLVTVSS
VL: EIVMTQSPATLSVSPGERATLSCRASQTVNRNLAWYQQKPGQAPRLLIYGASTRATGIPARFSGSGSGTEFTLTIGSLQSEDFAVYYCQQYKNWPRSFGQGTNVEIK
As for B2, the binding result in the assay with IL4R-his [1], in the assay with CTLA4-his [2] and with ST2-his [3] was “binds” in each case.

B3: R8C11VH/L4G6VK-mIgG2a (antibody, V domains shown)
VH: QVQLQQWGAGLLKPSETLSLTCAVFGGSFSGYYWSWIRQPPGKGLEWIGEINHRGNINDNPSLKSRVTISVDTSKNQFALKLSSVTAADTAVYYCARERGYSFGNYDHWGQGTLVTVSS
VL: EIVMTQSPATLSVSPGERATLSCRASQTVTRNLAWYQQKPGQAPRLLIYGASTRATGIPARFSGSGSGTEFTLTIGSLQSEDFAVYYCQQYKSWPRSFGQGTNVEIK
notes: Whole antibody with human variable regions and mouse constant regions (pMABG2a, pMABK); also called R8C11+L4G6
As for B3, the binding result in the assay with IL4R-his [4], in the assay with CTLA4-his [5] and in the assay with ST2-his [6] was “no binding (tested: 10 ug/ml)” in each case.

B4: R8C11VH/L3B4VK-mIgG2a (antibody, V domains shown)
VH: QVQLQQWGAGLLKPSETLSLTCAVFGGSFSGYYWSWIRQPPGKGLEWIGEINHRGNINDNPSLKSRVTISVDTSKNQFALKLSSVTAADTAVYYCARERGYSFGNYDHWGQGTLVTVSS
VL: EIVMTQSPATLSVSPGERATLSCRASQTVTRNLAWYQQKPGQAPRLLIYGASTRATGIPARFSGSGSGTEFTLTIGSLQSEDFAVYYCQQYKSWPRTFGQGTNVEIK
notes: Whole antibody with human variable regions and mouse constant regions (pMABG2a, pMABK); also called R8C11+L3B4
On to B4, for which the binding result in the assay with IL4R-his [4], with CTLA4-his [5] and with ST2-his [6] was “no binding (tested: 10 ug/ml)” in each case.
